Test results as given in patent US20090143285A1, “TARGET PROTEIN AND TARGET GENE FOR DRUG DISCOVERY AND SCREENING METHOD” (REVERSE PROTEOMICS RESEARCH INSTITUTE CO., LTD., priority 2005, published 2009).
Entries after “also recorded” stand apart in the source; their conditions may differ. Like-named read-outs stand apart in the source and are kept apart here.

Chains of the proteins cited; added tags and fusions are not shown.
UniProt P09104, whole entry: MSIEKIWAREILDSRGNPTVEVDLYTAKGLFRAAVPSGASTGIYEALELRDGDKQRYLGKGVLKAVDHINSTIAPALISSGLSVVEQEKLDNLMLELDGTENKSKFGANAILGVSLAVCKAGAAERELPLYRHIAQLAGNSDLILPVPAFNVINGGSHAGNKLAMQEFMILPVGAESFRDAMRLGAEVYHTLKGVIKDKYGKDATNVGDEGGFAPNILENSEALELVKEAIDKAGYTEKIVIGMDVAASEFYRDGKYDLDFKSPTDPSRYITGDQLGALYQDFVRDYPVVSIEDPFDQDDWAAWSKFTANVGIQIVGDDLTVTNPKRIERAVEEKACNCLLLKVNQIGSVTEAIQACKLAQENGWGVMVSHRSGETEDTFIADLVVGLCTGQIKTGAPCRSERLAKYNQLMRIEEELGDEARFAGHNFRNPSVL

What was measured:
[1] = system: FLJXXXXX-derived proteins; experiment: SEC/MS spin column interaction analysis of FLJXXXXX-derived proteins and various compounds (Tables 30-1 to 30-4); assay type: binding, human; details: SEC spin column filtrate, spectral intensity increased with doses of compound and protein
[2] = target: FLJ42665-derived protein (Homo sapiens, UniProt P09104)
Excerpt: To analyze the interactions between commonly used drugs and proteins expressed from human full-length cDNA clones while keeping both the proteins and the compounds in non-modified, non-immobilized state, size exclusion chromatography (SEC) and mass analysis were used in combination. The specific procedures are shown below.
The compound-protein mixture prepared in step 1 was subjected to chromatography using an SEC column, the compound and the protein were separated by SEC, and the compound that interacted with the bound compound or protein contained in the protein fraction was analyzed using a mass analyzer.
Protein concentrations were measured using BCA Protein Assay (PIERCE), in consideration of the purity calculated by SDS-PAGE.
Mass analysis was performed using LCQ DECA XP (Thermoelectron) or Q-TOF micro (Micromass), equipped with an ESI probe. The LC pump used was Agilent 1100 (Yokogawa Analytical Systems), and the autosampler used was HTC-PAL (CTC Analytics) equipped with a cooling stacker. The SEC column used was a micro-LC column or a 384-well spin column. […]
In the 384-well spin column method, Unifilter 100 (Whatman), packed with 10 μL (dry volume) of Bio-Gel P6 (BIO-RAD) and swollen with milliQ water, was used as the SEC column. […] The SEC spin column was mounted on an acetonitrile-aliquoted 384-well U-bottom plate and centrifuged; the SEC spin column filtrate, which is a protein fraction, was recovered in 50% acetonitrile. The protein precipitate produced by the acetonitrile was removed via centrifugation and filtration for deproteinization; the resulting filtrate was concentrated by centrifugal concentration and re-dissolved in 10 μL of 50% methanol to obtain a mass analysis sample. The mobile phase supplied to the mass analyzer was 0.1% formic acid/50% methanol solution in the positive ion mode, and 0.1% ammonia/50% methanol solution in the negative ion mode; these mobile phases were used at a flow rate of 40 μL/min. 2-μL of mass analysis samples were injected using an autosampler at 2-minute intervals; the mass spectral intensity of the compound was measured to retrieve the spectral intensity of the pharmaceutical compound contained in the SEC spin column filtrate (protein fraction eluted from SEC).

| SMILES | FLJ No of the derived protein with which the compound was judged to exhibit a concentration-dependent interaction [1] | spectrum intensity of the compound in the SEC spin column filtrate ([2]; compound 12.5 μM, protein 0 μM) | spectrum intensity of the compound in the SEC spin column filtrate ([2]; compound 12.5 μM, protein 5 μM) | spectrum intensity of the compound in the SEC spin column filtrate ([2]; compound 12.5 μM, protein 10 μM) | spectrum intensity of the compound in the SEC spin column filtrate ([2]; compound 12.5 μM, protein 25 μM) | spectrum intensity of the compound in the SEC spin column filtrate ([2]; compound 25 μM, protein 0 μM) | spectrum intensity of the compound in the SEC spin column filtrate ([2]; compound 25 μM, protein 5 μM) | spectrum intensity of the compound in the SEC spin column filtrate ([2]; compound 25 μM, protein 10 μM) | spectrum intensity of the compound in the SEC spin column filtrate ([2]; compound 25 μM, protein 25 μM) | spectrum intensity of the compound in the SEC spin column filtrate ([2]; compound 62.5 μM, protein 0 μM) | spectrum intensity of the compound in the SEC spin column filtrate ([2]; compound 62.5 μM, protein 5 μM) | spectrum intensity of the compound in the SEC spin column filtrate ([2]; compound 62.5 μM, protein 10 μM) | spectrum intensity of the compound in the SEC spin column filtrate ([2]; compound 62.5 μM, protein 25 μM) | interaction judged from spectrum intensity of the compound in the SEC spin column filtrate (protein fraction eluted from SEC) ([2]; spin column method, doses of both compound and protein varied) |
| --- | --- | --- | --- | --- | --- | --- | --- | --- | --- | --- | --- | --- | --- | --- |
| CC(C)(C)CC(C)(C)c1ccc(OCCOCC[N+](C)(C)Cc2ccccc2)cc1 [benzethonium] | FLJ42665; also recorded: FLJ35353 | 19475 | 26605 | 47666 | 130631 | 27192 | 21193 | 31214 | 124057 | 14420 | 28967 | 32809 | 108557 | dose-dependent interaction |
| CC(C)(C)c1ccc(C(=O)CCCN2CCC(OC(c3ccccc3)c3ccccc3)CC2)cc1 [ebastine] | FLJ35353 |  |  |  |  |  |  |  |  |  |  |  |  |  |
